Measured values taken from patent publication US20080280937A1, “Ligand Conjugates of Vinca Alkaloids, Analogs, and Derivatives” (priority 2005, published 2008).
At least one peptide structure holds a part that was inferred or is arguable (an end, a ring closure or a residue).

Legend:
[1] = tested on: folate receptor-positive KB cells; type: cell-based, human; details: with versus without at least 100-fold excess of folic acid
Description: Inhibition of Cellular DNA Synthesis. The compounds described herein were evaluated using an in vitro cytotoxicity assay that predicts the ability of the drug to inhibit the growth of folate receptor-positive KB cells. The compounds were comprised of folate linked to a respective chemotherapeutic drug, as prepared according to the protocols described herein. The KB cells were exposed for predetermined periods of time at 37° C. to the indicated concentrations of folate-drug conjugate in the absence or presence of at least a 100-fold excess of folic acid. The cells were then rinsed with fresh culture medium and incubated in fresh culture medium for 72 hours at 37° C. Cell viability was assessed using a ^3H-thymidine incorporation assay.

M109 tumors = assay: Inhibition of Tumor Growth in Mice, subcutaneous M109 tumors; type: in vivo; details: 3 μmol/kg TIW for 3 weeks, Balb/c mice
Description: Inhibition of Tumor Growth in Mice. The anti-tumor activity of the compounds described herein, when administered intravenously (i.v.) to tumor-bearing animals, was evaluated in Balb/c mice bearing subcutaneous M109 tumors. Approximately 11 days post tumor inoculation in the subcutis of the right axilla with 1×10^6 M109 cells (tumor volume range at t0=between 60 and 80 mm^3), mice (5/group) were injected i.v. three times a week (TIW), for a defined length of time (e.g., 2-3 weeks) with (a) a defined dose level on a per kilogram body weight basis of a drug delivery conjugate described herein, or (b) an equivalent dose volume of PBS (control). Tumor growth was measured using calipers at 2-day or 3-day intervals in each treatment group. Tumor volumes were calculated using the equation V=a×b^2/2, where “a” is the length of the tumor and “b” is the width expressed in millimeters.

Row | SMILES | competition by excess folic acid of effect on 3H-thymidine incorporation [1] | growth of M109 tumors (M109 tumors)
1 | CC[C@]1(O)C[C@H]2CN(CCc3c([nH]c4ccccc34)[C@@](C(=O)OC)(c3cc4c(cc3OC)N(C)[C@H]3[C@@](O)(C(=O)NNC(=O)OCCSSC[C@H](NC(=O)[C@H](CC(=O)O)NC(=O)[C@H](CC(=O)O)NC(=O)[C@H](CC(=O)O)NC(=O)[C@H](CC(=O)O)NC(=O)CC[C@H](NC(=O)c5ccc(NCc6cnc7nc(N)[nH]c(=O)c7n6)cc5)C(=O)O)C(=O)O)[C@H](O)[C@]5(CC)C=CCN6CC[C@]43[C@@H]65)C2)C1 [Example 21] | folate competes | inhibit the growth of solid tumors
2 | CC[C@]1(O)C[C@H]2CN(CCc3c([nH]c4ccccc34)[C@@](C(=O)OC)(c3cc4c(cc3OC)N(C)[C@H]3[C@@](O)(C(=O)NCCOC(=O)OCCSSC[C@H](NC(=O)[C@H](CC(=O)O)NC(=O)[C@H](CCCNC(=N)N)NC(=O)[C@H](CC(=O)O)NC(=O)CC[C@H](NC(=O)c5ccc(NCc6cnc7nc(N)[nH]c(=O)c7n6)cc5)C(=O)O)C(=O)O)[C@H](O)[C@]5(CC)C=CCN6CC[C@]43[C@@H]65)C2)C1 [Example 22] |  | inhibit the growth of solid tumors
